Data on 35 targets can be found in the supplement of paper PMC6411743.

Sequences of proteins named here, by UniProt entry; tags and fusion partners are left off. A change or cut given only in a name is not applied to a line headed by its entry.
UniProt Q9ULV3: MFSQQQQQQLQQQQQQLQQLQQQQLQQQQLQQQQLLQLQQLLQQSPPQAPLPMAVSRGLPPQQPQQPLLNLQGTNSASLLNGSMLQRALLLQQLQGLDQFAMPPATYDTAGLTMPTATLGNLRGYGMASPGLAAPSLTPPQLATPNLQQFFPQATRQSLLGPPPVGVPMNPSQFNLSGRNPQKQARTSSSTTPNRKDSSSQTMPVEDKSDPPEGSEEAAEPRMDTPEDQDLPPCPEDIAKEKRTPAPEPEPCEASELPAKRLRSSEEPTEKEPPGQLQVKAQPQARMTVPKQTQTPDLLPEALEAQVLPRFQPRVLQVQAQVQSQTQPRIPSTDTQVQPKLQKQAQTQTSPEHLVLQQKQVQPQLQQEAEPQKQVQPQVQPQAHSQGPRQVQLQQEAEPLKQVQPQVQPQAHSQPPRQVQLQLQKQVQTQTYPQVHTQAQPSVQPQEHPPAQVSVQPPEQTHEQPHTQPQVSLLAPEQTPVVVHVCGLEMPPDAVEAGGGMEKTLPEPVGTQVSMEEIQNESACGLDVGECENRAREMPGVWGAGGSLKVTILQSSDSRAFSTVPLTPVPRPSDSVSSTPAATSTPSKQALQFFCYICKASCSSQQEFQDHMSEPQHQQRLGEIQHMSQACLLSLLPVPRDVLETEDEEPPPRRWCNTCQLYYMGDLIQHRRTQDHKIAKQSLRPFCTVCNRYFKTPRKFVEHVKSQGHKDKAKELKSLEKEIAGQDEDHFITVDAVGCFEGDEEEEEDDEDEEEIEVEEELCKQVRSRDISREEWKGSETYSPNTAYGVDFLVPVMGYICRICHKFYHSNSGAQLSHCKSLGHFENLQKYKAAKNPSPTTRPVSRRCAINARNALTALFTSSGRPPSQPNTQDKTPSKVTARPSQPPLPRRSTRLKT
UniProt Q8NBJ7: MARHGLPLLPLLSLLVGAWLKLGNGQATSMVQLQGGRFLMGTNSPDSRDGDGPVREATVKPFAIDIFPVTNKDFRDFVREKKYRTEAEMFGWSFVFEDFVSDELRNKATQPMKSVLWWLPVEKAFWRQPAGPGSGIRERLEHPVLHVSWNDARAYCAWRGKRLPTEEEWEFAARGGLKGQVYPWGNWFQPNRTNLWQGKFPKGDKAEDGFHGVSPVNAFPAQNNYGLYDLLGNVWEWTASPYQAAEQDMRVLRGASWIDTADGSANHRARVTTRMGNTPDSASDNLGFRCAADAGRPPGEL
UniProt Q96AJ1: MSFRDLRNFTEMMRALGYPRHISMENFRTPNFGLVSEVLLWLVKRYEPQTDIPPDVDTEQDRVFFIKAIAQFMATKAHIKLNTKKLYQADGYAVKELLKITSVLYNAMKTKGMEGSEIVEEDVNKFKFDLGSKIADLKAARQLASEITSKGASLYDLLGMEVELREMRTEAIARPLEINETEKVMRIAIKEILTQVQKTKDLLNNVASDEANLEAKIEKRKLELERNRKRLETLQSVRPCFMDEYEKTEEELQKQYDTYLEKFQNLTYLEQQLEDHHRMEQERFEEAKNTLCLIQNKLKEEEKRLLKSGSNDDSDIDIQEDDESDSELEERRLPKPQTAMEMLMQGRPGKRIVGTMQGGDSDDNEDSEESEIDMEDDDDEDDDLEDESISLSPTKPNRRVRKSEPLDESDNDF
UniProt Q9UQB8: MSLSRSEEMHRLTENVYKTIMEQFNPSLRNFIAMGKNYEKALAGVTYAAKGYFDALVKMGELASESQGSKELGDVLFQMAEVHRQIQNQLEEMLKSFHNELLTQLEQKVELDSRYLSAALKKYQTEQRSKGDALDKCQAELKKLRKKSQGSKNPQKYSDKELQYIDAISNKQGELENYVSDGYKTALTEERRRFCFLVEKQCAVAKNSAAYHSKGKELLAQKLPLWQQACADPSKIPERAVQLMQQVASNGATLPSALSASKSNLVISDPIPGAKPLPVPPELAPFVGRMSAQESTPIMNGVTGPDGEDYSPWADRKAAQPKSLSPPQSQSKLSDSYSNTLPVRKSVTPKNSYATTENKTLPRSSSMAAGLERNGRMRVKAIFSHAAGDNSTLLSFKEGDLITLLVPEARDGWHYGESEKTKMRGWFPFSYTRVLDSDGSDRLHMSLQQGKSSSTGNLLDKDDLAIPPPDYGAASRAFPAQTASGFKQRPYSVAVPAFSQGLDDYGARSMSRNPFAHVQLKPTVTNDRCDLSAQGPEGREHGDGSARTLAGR
UniProt Q16543: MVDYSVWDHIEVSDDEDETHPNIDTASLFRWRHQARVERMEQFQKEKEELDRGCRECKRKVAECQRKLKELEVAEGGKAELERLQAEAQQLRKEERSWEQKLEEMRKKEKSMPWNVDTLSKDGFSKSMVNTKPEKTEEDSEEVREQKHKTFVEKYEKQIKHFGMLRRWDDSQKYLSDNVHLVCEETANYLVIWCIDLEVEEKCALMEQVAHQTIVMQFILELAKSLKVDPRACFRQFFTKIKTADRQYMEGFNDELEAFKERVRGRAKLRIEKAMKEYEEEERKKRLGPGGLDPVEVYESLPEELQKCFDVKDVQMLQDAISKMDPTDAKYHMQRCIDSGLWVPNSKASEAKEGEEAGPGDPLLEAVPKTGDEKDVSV
UniProt Q9NWL6: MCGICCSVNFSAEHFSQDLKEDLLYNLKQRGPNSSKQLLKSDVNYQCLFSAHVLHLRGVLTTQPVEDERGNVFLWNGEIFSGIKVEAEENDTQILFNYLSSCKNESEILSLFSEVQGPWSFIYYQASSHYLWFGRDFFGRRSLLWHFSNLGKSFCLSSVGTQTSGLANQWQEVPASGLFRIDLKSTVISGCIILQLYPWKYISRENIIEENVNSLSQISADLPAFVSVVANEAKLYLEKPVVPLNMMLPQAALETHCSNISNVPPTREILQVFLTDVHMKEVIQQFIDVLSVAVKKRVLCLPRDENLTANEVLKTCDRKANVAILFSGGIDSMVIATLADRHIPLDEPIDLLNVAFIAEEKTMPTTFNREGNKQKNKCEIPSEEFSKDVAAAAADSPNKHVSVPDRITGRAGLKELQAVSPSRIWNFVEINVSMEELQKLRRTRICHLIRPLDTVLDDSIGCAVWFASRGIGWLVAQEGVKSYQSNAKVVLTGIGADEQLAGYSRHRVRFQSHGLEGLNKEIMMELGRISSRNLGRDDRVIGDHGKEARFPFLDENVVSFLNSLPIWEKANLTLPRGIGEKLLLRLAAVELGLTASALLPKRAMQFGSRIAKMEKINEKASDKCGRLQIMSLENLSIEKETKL
UniProt P36776: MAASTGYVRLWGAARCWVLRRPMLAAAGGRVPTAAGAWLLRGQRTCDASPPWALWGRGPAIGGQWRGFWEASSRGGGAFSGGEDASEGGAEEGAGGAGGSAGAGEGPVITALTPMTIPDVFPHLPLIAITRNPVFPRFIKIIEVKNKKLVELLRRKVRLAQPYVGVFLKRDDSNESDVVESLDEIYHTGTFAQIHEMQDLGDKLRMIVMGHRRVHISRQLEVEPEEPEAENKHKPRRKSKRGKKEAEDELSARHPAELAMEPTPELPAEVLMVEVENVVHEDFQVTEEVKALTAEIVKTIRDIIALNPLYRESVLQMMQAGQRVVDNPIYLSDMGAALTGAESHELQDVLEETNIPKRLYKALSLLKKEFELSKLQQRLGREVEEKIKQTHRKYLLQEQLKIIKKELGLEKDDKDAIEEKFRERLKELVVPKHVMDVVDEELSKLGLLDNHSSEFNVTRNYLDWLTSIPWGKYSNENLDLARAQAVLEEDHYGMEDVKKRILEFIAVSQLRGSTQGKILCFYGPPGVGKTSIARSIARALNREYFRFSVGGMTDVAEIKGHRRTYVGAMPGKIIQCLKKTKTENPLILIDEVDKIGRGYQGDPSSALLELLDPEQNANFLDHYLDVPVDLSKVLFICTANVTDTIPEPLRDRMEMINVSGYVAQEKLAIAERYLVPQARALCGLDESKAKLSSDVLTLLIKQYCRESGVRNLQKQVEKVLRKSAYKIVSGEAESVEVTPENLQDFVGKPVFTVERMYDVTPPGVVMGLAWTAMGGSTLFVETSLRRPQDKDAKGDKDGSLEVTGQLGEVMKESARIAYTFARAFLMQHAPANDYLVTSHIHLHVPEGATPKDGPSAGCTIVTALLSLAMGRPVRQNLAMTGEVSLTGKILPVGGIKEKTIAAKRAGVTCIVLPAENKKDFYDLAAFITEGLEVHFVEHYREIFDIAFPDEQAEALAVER
UniProt O95476: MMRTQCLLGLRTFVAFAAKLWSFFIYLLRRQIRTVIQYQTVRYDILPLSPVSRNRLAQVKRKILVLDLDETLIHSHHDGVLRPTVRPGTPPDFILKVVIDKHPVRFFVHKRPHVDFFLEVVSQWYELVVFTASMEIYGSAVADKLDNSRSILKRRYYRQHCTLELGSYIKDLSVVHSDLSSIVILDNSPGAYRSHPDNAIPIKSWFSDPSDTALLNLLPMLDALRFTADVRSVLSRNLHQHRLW
UniProt Q5J8M3, whole entry: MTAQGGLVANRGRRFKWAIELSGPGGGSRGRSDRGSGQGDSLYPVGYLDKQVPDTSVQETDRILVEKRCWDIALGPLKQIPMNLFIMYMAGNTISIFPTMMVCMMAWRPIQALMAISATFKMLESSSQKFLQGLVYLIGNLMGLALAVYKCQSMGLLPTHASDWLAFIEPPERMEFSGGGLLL
UniProt O95166, whole entry: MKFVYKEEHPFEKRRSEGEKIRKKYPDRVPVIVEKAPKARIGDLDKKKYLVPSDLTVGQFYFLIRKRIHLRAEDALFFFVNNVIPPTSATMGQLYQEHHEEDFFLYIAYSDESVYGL
UniProt Q96PV7: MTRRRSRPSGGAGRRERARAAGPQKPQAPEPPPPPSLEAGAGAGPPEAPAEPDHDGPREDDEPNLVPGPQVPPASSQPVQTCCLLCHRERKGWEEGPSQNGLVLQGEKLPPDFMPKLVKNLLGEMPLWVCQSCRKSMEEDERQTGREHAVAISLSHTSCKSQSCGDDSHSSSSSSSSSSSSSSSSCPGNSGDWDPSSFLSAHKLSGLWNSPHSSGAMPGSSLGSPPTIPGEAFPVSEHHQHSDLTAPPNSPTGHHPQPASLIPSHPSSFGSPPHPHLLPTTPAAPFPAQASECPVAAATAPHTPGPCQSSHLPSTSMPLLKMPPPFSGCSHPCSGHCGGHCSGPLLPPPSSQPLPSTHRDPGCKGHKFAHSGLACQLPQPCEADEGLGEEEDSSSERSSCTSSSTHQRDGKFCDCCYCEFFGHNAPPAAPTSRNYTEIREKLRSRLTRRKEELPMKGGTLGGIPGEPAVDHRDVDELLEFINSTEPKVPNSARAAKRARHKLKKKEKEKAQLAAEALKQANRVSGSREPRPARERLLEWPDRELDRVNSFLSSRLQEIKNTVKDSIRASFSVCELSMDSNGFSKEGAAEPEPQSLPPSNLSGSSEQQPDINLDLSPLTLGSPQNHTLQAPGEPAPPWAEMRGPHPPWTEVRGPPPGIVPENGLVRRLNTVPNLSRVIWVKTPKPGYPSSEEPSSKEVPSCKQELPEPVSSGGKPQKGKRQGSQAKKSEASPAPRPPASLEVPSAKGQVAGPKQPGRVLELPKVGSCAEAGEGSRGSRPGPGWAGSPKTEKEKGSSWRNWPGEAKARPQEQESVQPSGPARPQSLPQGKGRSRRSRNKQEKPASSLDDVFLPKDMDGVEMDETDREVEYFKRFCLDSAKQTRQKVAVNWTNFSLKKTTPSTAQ
UniProt O94952: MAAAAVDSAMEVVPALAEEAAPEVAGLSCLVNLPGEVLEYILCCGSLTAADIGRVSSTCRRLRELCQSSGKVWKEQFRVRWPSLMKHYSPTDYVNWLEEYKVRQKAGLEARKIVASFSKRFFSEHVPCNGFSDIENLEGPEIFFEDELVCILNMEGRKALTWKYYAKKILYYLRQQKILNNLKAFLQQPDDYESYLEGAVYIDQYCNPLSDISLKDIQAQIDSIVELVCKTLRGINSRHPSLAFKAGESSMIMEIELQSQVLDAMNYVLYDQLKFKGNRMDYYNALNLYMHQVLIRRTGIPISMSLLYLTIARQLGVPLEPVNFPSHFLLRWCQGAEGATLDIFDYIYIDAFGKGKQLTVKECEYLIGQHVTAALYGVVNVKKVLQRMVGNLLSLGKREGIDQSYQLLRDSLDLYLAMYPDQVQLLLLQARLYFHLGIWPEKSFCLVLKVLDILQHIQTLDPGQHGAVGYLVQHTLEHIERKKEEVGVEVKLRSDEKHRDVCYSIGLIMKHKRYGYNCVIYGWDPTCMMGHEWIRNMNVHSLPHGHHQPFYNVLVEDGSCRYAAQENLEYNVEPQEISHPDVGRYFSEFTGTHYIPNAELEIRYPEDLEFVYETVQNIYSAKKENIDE
UniProt Q99933: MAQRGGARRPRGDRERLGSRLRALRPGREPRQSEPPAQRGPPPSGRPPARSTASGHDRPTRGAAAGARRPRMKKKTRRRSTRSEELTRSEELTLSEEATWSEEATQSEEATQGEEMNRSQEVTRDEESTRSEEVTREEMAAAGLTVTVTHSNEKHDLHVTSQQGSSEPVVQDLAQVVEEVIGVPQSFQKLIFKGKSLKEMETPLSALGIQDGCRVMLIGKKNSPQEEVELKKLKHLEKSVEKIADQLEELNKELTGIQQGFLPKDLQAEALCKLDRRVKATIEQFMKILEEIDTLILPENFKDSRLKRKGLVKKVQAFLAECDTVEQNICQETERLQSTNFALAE

± gives the standard deviation of the averaged measurements. The list shows a part of the results, in another mix than the full data.

Compound in this assay: Nc1ncnc2c1ncn2[C@@H]1O[C@H](COP(=O)(O)OP(=O)(O)OP(=O)(O)O)[C@@H](O)[C@H]1O [adenosine triphosphate]
The assay can be described thus: NP40-soluble protein abundance relative to vehicle (solubility fold change) (ratio); higher = more soluble protein in presence of ATP. The conditions noted are these: concentration: 8mM. The procedure, abridged: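 In three independent experiments, Jurkat crude lysate made by Dounce homogenisation was treated for 10 min at room temperature and then 3 min at 37 °C with eight concentrations ranging from 0.1 to 10 mM. It was then solubilised with 0.8% NP40 plus benzonase for 60 min at 4 °C and ultracentrifuged. The supernatant was TMT-labelled for LC-MS/MS, and each value is the fold change against the detergent-processed vehicle for the same replicate, using vsn-normalised intensities.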
As for “H7BYP4 and related entries (UniProt Q9H930)”, the NP40-soluble protein abundance is 0.968 ± 0.081.

On to “J3QRU1 and related entries (UniProt P07947)”, for which the NP40-soluble protein abundance is 0.983 ± 0.11. Turning to “H0Y5D5 and related entries (UniProt Q9ULV3)”, the NP40-soluble protein abundance was 0.957 ± 0.033. In the case of UniProt I3L0E3, the NP40-soluble protein abundance stood at 0.9 ± 0.12. Then “H0Y360 and related entries (UniProt Q01433)”, with 0.969 ± 0.013; and “H3BQD1 and related entries (UniProt Q93009)”, with 1.04 ± 0.054; and “H3BPU4 and related entries (UniProt Q9UGJ1)”, with 1.13 ± 0.096. For the target “H0Y4B0 and related entries (UniProt O43414)”, the NP40-soluble protein abundance was 0.975 ± 0.084. As to “K7EPA3 and related entries (UniProt Q9NX61)”, the NP40-soluble protein abundance stood at 0.959 ± 0.019. Then “J3KQJ1 and related entries (UniProt Q8NBJ7)”, with 0.913 ± 0.054; and “M0QX46 and related entries (UniProt Q6UUV9)”, with 0.969 ± 0.041. The figure for “I3L121 and related entries (UniProt Q96AJ1)” is 0.985 ± 0.038; for “I3L4C2 and related entries (UniProt Q9UQB8)” it is 0.875 ± 0.05; for “K7EL68 and related entries (UniProt Q16543)” it is 0.925 ± 0.034. Then “H7C3H7 and related entries (UniProt Q12873)”, with 1.39 ± 0.048. On to “H7C2Q8 and related entries (UniProt Q99848)”, for which the NP40-soluble protein abundance is 1.16 ± 0.14.

Consider “I3L2C7 and related entries (UniProt P57678)”, for which the NP40-soluble protein abundance worked out at 1.05 ± 0.1. The figure for L0R819 (UniProt Q9NWL6) is 0.892 ± 0.13. The figure for “H0Y997 and related entries (UniProt Q96J42)” is 0.844 ± 0.02; for “H3BTA2 and related entries (UniProt P60510)” it is 1.05 ± 0.055. As for “J3KNP4 and related entries (UniProt Q9NPR2)”, the NP40-soluble protein abundance worked out at 0.89 ± 0.051. Take “K4DI93 and related entries (UniProt Q13620)”: the NP40-soluble protein abundance came to 0.953 ± 0.017. Then “K7EKE6 and related entries (UniProt P36776)”, with 0.996 ± 0.036; and “H0Y860 and related entries (UniProt Q9P246)”, with 0.991 ± 0.08; and “K7EQ37 and related entries (UniProt Q70J99)”, with 1.02 ± 0.056.

Regarding “K7ER53 and related entries (UniProt O95644)”, the NP40-soluble protein abundance is 1.02 ± 0.1. The figure for “H7C1Z7 and related entries (UniProt Q9GZU7)” is 1.05 ± 0.13.

With “H0Y8W3 and related entries (UniProt O43566)”, the NP40-soluble protein abundance came to 0.969 ± 0.019. Take “I3L3K5 and related entries (UniProt O95476)”: the NP40-soluble protein abundance was 1.01 ± 0.14. With “H0YK61 and related entries (UniProt Q5J8M3)”, the NP40-soluble protein abundance came out at 0.966 ± 0.12.

Consider “H6UMI1 and related entries (UniProt O95166)”, for which the NP40-soluble protein abundance amounted to 0.909 ± 0.023. As for “H0YCX2 and related entries (UniProt Q96PV7)”, the NP40-soluble protein abundance came out at 1.3 ± 0.1. Then “H0YIE9 and related entries (UniProt O94952)”, with 1.04 ± 0.086.

Consider “J3QTA2 and related entries (UniProt Q99933)”, for which the NP40-soluble protein abundance came out at 1.03 ± 0.032. “J3KSB5 and related entries (UniProt P21359)”: the NP40-soluble protein abundance turned out to be 1.06 ± 0.15.
